Source: publication PMC6428816

Target: T1, caveolin-1 (rat (endogenous in rat pup intestine)) (UniProt P41350)
T1 sequence: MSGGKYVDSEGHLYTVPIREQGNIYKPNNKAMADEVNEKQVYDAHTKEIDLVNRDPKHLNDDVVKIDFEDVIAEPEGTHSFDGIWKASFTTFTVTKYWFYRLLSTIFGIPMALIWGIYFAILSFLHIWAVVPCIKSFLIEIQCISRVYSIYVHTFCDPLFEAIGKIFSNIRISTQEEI
Assay: co-IP; rat intestine lysates immunoprecipitated with anti-caveolin-1 or anti-claudin 2 antibody, irrelevant IgG as negative control, western blot for claudin 2 and caveolin-1; rats: control, NEC, ROCK inhibitor (RI), RI + NEC

In the case of “claudin 2 (rat (endogenous in rat pup intestine))”, the binding is reported as “binds”.

These are yes or no findings as the source states them, for the method shown. In cells and extracts the contact can be indirect. A result given as binding can be weak or reduced; the word gives no strength.
